The other results are listed elsewhere or left out.
What was measured:
Assay in all cases: log2 fold change, soluble protein after heating vs DMSO (PISA); higher = thermal stabilisation; K562 cells, 10 uM, 30 min; active = over 0.2 and 3.5 SD of the protein, either way, in both replicates (recomputed)
[1] = compound: CC[C@@H]1C(=O)N(C)c2cnc(Nc3ccc(C(=O)NC4CCN(C)CC4)cc3OC)nc2N1C1CCCC1
Method in brief: (§1)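 K562 cells (2×10^6 cells/mL) were treated with 10 μM compound for 30 min, and aliquots were heated for 3 min over 48°C-58°C. Pooled aliquots were extracted in PBS with 0.5% NP-40 at 4°C, and the supernatant after 21,000xg for 90 min was measured by TMTpro 16plex LC-MS/MS with channel sums equalised. Reported thermal stability, relative to control samples and from duplicates, is a log2 fold change.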

The chains behind the UniProt entries cited, without tags or fusion partners. Where a name states a change or a piece, a line headed by the entry shows the natural chain unless it says otherwise.
UniProt P25325: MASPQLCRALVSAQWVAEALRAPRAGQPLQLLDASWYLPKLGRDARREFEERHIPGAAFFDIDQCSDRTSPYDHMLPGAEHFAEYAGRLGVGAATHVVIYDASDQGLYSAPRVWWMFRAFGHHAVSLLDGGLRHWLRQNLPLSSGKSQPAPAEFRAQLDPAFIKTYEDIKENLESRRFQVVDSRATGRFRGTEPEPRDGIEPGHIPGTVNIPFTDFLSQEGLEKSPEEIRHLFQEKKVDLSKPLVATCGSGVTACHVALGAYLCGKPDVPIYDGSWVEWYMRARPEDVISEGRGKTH
UniProt Q9NYP9: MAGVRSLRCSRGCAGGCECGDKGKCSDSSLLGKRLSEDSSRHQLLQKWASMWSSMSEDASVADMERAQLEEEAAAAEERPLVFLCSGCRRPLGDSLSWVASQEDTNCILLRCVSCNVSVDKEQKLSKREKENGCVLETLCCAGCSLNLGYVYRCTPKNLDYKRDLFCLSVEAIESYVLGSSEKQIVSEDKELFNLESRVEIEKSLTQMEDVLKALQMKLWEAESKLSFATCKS
UniProt Q9NXC5: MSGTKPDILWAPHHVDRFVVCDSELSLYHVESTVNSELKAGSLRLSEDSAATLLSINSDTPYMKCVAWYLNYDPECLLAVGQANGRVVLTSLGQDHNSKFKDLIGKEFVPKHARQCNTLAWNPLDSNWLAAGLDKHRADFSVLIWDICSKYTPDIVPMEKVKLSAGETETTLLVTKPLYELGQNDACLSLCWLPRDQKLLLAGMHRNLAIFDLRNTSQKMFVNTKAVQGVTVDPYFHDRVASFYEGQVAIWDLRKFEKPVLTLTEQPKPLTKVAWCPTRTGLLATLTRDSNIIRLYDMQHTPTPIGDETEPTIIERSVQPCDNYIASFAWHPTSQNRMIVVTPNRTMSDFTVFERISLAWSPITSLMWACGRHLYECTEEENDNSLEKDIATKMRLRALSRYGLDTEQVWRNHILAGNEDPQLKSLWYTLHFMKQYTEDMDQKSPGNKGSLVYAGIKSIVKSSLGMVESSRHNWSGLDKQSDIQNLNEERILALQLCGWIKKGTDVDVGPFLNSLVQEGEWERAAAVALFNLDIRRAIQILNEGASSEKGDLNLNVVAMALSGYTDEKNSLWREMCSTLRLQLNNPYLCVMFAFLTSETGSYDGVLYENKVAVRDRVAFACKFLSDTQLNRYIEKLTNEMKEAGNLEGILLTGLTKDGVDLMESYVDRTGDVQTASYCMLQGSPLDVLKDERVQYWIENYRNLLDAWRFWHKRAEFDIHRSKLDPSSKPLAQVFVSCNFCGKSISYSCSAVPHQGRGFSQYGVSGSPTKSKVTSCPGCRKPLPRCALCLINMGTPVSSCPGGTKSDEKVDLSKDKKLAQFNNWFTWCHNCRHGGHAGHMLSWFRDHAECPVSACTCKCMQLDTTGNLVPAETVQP
UniProt O95563: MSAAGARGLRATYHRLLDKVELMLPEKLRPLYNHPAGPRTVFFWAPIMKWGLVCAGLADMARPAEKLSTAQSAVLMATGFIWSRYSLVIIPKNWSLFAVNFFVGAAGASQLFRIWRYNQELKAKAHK
UniProt Q9UNW1: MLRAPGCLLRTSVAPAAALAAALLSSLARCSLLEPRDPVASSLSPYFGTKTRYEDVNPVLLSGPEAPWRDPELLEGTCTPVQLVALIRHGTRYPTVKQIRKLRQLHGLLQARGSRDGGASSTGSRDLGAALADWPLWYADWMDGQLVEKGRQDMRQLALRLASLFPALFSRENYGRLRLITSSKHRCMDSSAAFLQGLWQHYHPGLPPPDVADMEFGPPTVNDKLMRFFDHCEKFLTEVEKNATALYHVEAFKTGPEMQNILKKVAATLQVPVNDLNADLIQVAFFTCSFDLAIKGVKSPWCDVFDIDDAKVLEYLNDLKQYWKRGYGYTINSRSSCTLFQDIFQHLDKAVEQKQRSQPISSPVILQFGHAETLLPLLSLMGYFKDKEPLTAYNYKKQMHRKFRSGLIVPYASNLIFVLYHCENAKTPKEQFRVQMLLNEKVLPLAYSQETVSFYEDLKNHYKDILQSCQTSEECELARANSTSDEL
UniProt Q96EN8: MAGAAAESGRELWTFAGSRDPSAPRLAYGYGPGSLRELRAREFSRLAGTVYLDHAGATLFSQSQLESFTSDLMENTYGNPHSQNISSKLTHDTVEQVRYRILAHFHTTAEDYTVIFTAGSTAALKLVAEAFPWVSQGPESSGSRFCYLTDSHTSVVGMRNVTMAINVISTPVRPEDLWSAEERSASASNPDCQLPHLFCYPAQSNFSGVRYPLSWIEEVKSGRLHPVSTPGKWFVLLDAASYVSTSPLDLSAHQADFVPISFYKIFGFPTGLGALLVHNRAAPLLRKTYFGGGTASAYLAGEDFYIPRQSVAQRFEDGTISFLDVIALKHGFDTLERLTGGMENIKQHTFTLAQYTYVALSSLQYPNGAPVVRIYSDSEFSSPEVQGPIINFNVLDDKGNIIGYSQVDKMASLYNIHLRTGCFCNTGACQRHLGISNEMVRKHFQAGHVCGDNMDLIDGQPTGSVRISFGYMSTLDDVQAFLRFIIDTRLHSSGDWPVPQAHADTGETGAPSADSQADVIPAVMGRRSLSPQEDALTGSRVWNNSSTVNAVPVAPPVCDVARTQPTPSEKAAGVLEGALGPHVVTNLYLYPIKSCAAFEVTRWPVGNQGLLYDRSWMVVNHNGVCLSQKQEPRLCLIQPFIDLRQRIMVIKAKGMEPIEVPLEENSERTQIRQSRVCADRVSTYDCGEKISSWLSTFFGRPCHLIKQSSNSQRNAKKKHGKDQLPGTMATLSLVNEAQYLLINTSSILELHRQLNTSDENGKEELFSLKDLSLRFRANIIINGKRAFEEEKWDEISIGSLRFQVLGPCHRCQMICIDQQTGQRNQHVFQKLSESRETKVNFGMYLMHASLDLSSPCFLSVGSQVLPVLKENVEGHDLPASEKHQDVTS
UniProt P22033: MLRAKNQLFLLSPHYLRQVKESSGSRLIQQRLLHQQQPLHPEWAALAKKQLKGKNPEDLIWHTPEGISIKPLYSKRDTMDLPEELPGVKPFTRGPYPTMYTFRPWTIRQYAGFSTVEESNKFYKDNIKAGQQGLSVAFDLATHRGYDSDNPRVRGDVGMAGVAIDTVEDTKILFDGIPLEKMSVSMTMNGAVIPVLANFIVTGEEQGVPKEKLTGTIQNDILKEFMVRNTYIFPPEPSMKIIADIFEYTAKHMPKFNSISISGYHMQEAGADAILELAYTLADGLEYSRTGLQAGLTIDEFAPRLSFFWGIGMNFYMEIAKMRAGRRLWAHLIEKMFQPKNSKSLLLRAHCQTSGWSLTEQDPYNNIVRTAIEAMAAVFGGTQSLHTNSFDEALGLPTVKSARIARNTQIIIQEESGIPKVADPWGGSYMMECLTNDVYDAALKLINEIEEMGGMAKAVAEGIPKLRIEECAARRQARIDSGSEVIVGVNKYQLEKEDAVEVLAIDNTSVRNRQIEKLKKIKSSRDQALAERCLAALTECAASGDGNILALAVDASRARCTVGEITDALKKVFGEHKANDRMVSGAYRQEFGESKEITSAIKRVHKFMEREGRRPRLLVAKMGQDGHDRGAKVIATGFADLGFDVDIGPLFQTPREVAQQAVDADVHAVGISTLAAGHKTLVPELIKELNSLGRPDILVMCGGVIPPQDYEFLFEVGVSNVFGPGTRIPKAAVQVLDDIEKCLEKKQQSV
UniProt P49959: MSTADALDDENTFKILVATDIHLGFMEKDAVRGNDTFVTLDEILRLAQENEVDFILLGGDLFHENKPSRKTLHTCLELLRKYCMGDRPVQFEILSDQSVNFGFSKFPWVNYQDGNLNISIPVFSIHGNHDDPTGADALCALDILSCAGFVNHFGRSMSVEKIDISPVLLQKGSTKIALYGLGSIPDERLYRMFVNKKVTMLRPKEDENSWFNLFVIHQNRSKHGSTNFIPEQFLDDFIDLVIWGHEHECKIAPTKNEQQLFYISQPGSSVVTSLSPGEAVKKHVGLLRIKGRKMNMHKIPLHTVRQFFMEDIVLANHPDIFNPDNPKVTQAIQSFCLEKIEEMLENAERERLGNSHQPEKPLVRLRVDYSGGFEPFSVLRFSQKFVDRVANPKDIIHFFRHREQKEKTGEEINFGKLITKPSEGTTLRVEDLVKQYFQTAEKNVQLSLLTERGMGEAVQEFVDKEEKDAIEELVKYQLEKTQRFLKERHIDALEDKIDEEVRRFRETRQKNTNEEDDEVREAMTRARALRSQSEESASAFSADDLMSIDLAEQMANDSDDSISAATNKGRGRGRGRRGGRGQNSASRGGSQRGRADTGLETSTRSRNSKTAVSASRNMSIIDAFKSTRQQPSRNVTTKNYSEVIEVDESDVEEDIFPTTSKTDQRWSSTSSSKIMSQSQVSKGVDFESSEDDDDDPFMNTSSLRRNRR
UniProt Q13724: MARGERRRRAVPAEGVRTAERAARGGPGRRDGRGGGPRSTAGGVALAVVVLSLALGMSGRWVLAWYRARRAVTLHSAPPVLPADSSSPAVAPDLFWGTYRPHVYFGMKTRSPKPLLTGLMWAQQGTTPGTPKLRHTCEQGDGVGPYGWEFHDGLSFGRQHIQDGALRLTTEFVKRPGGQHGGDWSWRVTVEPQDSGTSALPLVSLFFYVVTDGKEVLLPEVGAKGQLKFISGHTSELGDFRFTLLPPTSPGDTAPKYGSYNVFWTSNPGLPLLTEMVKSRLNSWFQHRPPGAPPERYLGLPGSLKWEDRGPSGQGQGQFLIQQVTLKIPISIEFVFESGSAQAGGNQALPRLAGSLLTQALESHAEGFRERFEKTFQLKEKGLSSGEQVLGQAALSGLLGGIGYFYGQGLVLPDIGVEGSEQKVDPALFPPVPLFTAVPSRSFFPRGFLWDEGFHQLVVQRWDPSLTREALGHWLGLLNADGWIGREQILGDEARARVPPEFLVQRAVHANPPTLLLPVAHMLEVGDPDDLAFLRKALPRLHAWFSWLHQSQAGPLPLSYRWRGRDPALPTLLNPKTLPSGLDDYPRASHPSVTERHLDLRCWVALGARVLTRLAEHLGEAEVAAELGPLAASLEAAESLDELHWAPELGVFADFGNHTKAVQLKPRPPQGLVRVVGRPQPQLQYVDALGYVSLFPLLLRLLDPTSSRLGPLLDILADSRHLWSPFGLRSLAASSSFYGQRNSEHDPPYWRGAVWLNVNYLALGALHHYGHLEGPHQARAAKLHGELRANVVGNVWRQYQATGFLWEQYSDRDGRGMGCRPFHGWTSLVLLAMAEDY

[2] = compound: CC[C@@H]1C(=O)N(C)c2cnc(Nc3ccc(C(=O)N[C@H]4CC[C@H](N5CCN(CC6CC6)CC5)CC4)cc3OC)nc2N1C(C)C [volasertib]
Method in brief: as §1

[3] = compound: CC[C@H](C)N1C=C(C2=C(C=C(C=C21)C3=CN=C(C=C3)N4CCNCC4)C(=O)NCC5=C(C=C(NC5=O)C)C)C
Method in brief: as §1

[4] = compound: CC[C@H](C)[C@@H](C(=O)N[C@@H]([C@@H](C)O)C(=O)N[C@@H](CC(C)C)C(=O)[C@]1(CO1)C)NC(=O)[C@H]([C@@H](C)CC)N(C)C(=O)C [epoxomicin]
Method in brief: as §1

[5] = compound: CCn1c(C(=O)N(C2CC2)C2CC2)cc2c3c(ncn3C)c(Nc3cc(C)n(C)n3)nc21
Method in brief: as §1

[6] = compound: CCn1cc(-c2ccnc3[nH]c(-c4cccc(CN(C)C)c4)cc23)c(-c2ccc(NC(=O)N(C)C)cc2)n1
Method in brief: as §1

[7] = compound: CN(C)CC(=O)Nc1ccc2[nH]c(=O)c3ccccc3c2c1
Method in brief: as §1

[8] = compound: CN(CCOC1=CC=C(C=C1)C[C@H]2C(=O)NC(=O)S2)C3=CC=CC=N3 (racemic) [rosiglitazone]
Method in brief: as §1

[9] = compound: CN1C2=C(C3=C1C(=O)N(N=C3)CC4=CC(=CC=C4)N)SC(=C2)S(=O)C
Method in brief: as §1

[10] = compound: CN1CCC(CNc2ccc3ncc(-c4cccc(OC(F)(F)F)c4)n3n2)CC1
Method in brief: as §1

[11] = compound: CN1CCN(CCOc2cc(OC3CCOCC3)c3c(Nc4c(Cl)ccc5c4OCO5)ncnc3c2)CC1 [saracatinib]
Method in brief: as §1

[12] = compound: CN1CCN(c2nc(C3=C(c4c[nH]c5ccccc45)C(=O)NC3=O)c3ccccc3n2)CC1 [sotrastaurin]
Method in brief: as §1

[13] = compound: CN1CC[C@H](c2c(O)cc(O)c3c(=O)cc(-c4ccccc4Cl)oc23)[C@H](O)C1 [alvocidib]
Method in brief: as §1

[14] = compound: CN1CCc2c(c3ccccc3n2Cc2ccc(C(=O)NO)cc2)C1 [Tubastatin A]
Method in brief: as §1

[15] = compound: CNC(=O)C1=CC=CC=C1NC2=NC(=NC=C2Cl)NC3=C(C=C(C=C3)N4CCOCC4)OC
Method in brief: as §1

[16] = compound: CNC(=O)c1ccc(Nc2ncc(C(F)(F)F)c(NCc3nccnc3N(C)S(C)(=O)=O)n2)cc1 [defactinib]
Method in brief: as §1

[17] = compound: CNCc1ccc(-c2[nH]c3cc(F)cc4c3c2CCNC4=O)cc1 [rucaparib]
Method in brief: as §1

[18] = compound: CNc1nc(-c2ccc3c(N)n[nH]c3c2)cc(N2C[C@@H](C(=O)NC3CCCCC3)CC[C@H]2C)n1
Method in brief: as §1

[19] = compound: COC(=O)N[C@@H](C)CNc1nccc(-c2cn(C(C)C)nc2-c2cc(Cl)cc(NS(C)(=O)=O)c2F)n1 [encorafenib]
Method in brief: as §1

[20] = compound: COC(=O)[C@H](CCSC)NC(=O)C1=C(C=C(C=C1)NC[C@H](CS)N)C2=CC=CC=C2
Method in brief: as §1

Measured: log2 fold change

MRPL10 isoform 2 (UniProt Q7Z7H8)
inactive: [1] -0.111 | [2] 0.04 | [3] 0.089 | [4] -0.041 | [5] -0.081 | [6] -0.152 | [7] -0.041 | [8] -0.029 | [9] 0.076 | [10] 0.066 | [11] -0.216 | [12] -0.002 | [13] 0.119 | [14] 0.05 | [15] -0.152 | [16] 0.092 | [17] 0.077 | [18] 0.168 | [19] 0.077 | [20] -0.025

MRPL23 (UniProt Q16540)
inactive: [1] -0.011 | [2] 0.268 | [3] 0.052 | [4] 0.025 | [5] -0.037 | [6] 0.019 | [7] -0.041 | [8] -0.158 | [9] 0.082 | [10] -0.021 | [11] -0.16 | [12] 0.016 | [13] 0.111 | [14] 0.066 | [15] -0.062 | [16] 0.212 | [17] 0.125 | [18] 0.01 | [19] 0.048 | [20] -0.216

MPST isoform 2 (UniProt P25325)
inactive: [1] 0.017 | [2] -0.118 | [3] -0.005 | [4] 0.012 | [5] -0.018 | [6] 0.028 | [7] 0.021 | [8] 0.019 | [9] -0.061 | [10] 0.014 | [11] -0.012 | [12] -0.071 | [13] -0.058 | [14] -0.016 | [15] 0.133 | [16] -0.099 | [17] 0.007 | [18] 0.001 | [19] 0.004 | [20] -0.031

MRPL12 (UniProt P52815)
inactive: [1] 0.021 | [2] 0.056 | [3] -0.062 | [4] 0.231 | [5] 0.033 | [6] 0.134 | [7] -0.042 | [8] -0.001 | [9] -0.014 | [10] 0.183 | [11] -0.01 | [12] -0.024 | [13] -0.014 | [14] 0.039 | [15] 0.022 | [16] 0.006 | [17] -0.11 | [18] -0.007 | [19] 0.069 | [20] -0.069

MRPL32 (UniProt Q9BYC8)
inactive: [1] 0.035 | [2] 0.189 | [3] -0.052 | [4] -0.092 | [5] 0.109 | [6] 0.067 | [7] -0.105 | [8] -0.07 | [9] 0.109 | [10] 0.105 | [11] 0.001 | [12] 0.172 | [13] 0.104 | [14] 0.002 | [15] -0.05 | [16] 0.111 | [17] 0.166 | [18] -0.113 | [19] 0.02 | [20] 0.018

MIS18A (UniProt Q9NYP9)
inactive: [1] -0.014 | [2] -0.068 | [3] 0.043 | [4] 0.004 | [5] 0.013 | [6] -0.009 | [7] 0.051 | [8] 0.017 | [9] -0.058 | [10] -0.022 | [11] 0.017 | [12] 0.032 | [13] -0.056 | [14] 0.014 | [15] 0.015 | [16] -0.1 | [17] -0.01 | [18] -0.037 | [19] 0.005 | [20] 0.033

MRPL1 (UniProt Q9BYD6)
inactive: [1] 0.03 | [2] 0.194 | [3] 0.078 | [4] 0.044 | [5] -0.022 | [6] -0.021 | [7] 0.018 | [8] 0.048 | [9] 0.177 | [10] -0.056 | [11] -0.125 | [12] -0.181 | [13] 0.014 | [14] 0.195 | [15] -0.022 | [16] 0.304 | [17] 0.156 | [18] 0.175 | [19] 0.104 | [20] -0.031

MIOS (UniProt Q9NXC5)
inactive: [1] 0.02 | [2] 0.047 | [3] -0.012 | [4] -0.013 | [5] -0.037 | [6] 0.066 | [7] -0.041 | [8] -0.023 | [9] 0.035 | [10] 0.096 | [11] 0.027 | [12] -0.041 | [13] 0.056 | [14] 0.003 | [15] 0.033 | [16] -0.012 | [17] -0.032 | [18] -0.041 | [19] -0.017 | [20] 0.035

MPC2 (UniProt O95563)
inactive: [1] 0.07 | [2] 0.056 | [3] -0.044 | [4] -0.031 | [5] -0.004 | [6] -0.02 | [7] -0.007 | [8] 0.025 | [9] -0.057 | [10] 0.118 | [11] 0.039 | [12] 0.029 | [13] -0.013 | [14] 0.007 | [15] -0.039 | [16] -0.015 | [17] -0.074 | [18] -0.11 | [19] 0.03 | [20] 0.018

MINPP1 (UniProt Q9UNW1)
inactive: [1] 0.014 | [2] 0.006 | [3] 0.074 | [4] 0.04 | [5] 0.042 | [6] 0.02 | [7] -0.002 | [8] -0.018 | [9] -0.001 | [10] 0.07 | [11] 0.037 | [12] 0.043 | [13] -0.014 | [14] -0.003 | [15] 0.02 | [16] -0.005 | [17] 0.003 | [18] -0.079 | [19] 0.012 | [20] 0.008

MOCOS (UniProt Q96EN8)
inactive: [1] 0.009 | [2] 0.003 | [3] 0.01 | [4] -0.058 | [5] 0.008 | [6] -0.041 | [7] -0.023 | [8] 0 | [9] -0.062 | [10] 0.009 | [11] 0.091 | [12] 0.013 | [13] -0.186 | [14] -0.037 | [15] -0.064 | [16] 0.028 | [17] 0.038 | [18] -0.063 | [19] -0.015 | [20] 0.024

MMUT (UniProt P22033)
inactive: [1] -0.021 | [2] -0.069 | [3] 0.013 | [4] 0.021 | [5] 0 | [6] -0.042 | [7] 0.013 | [8] 0.031 | [9] -0.045 | [10] -0.067 | [11] 0.023 | [12] -0.021 | [13] -0.036 | [14] -0.012 | [15] 0.03 | [16] -0.072 | [17] -0.059 | [18] -0.072 | [19] 0.025 | [20] -0.009

MRE11 isoform 3 (UniProt P49959)
inactive: [1] -0.001 | [2] -0.066 | [3] -0.005 | [4] -0.001 | [5] 0.009 | [6] -0.01 | [7] -0.017 | [8] -0.035 | [9] -0.028 | [10] 0.04 | [11] 0.011 | [12] -0.021 | [13] -0.018 | [14] -0.063 | [15] -0.019 | [16] -0.05 | [17] -0.009 | [18] -0.031 | [19] 0.02 | [20] 0.036

MRPL21 (UniProt Q7Z2W9)
inactive: [1] 0.026 | [2] 0.211 | [3] 0.07 | [4] -0.027 | [5] -0.035 | [6] -0.182 | [7] -0.028 | [8] -0.047 | [9] 0.155 | [10] 0.075 | [11] -0.232 | [12] -0.182 | [13] 0.079 | [14] 0.109 | [15] 0.013 | [16] 0.068 | [17] 0.056 | [18] 0.222 | [19] 0.115 | [20] -0.109

Two consecutive entries out of the list so far:
MMUT (UniProt P22033)
inactive: [1] -0.021 | [2] -0.069 | [3] 0.013 | [4] 0.021 | [5] 0 | [6] -0.042 | [7] 0.013 | [8] 0.031 | [9] -0.045 | [10] -0.067 | [11] 0.023 | [12] -0.021 | [13] -0.036 | [14] -0.012 | [15] 0.03 | [16] -0.072 | [17] -0.059 | [18] -0.072 | [19] 0.025 | [20] -0.009

MRE11 isoform 3 (UniProt P49959)
inactive: [1] -0.001 | [2] -0.066 | [3] -0.005 | [4] -0.001 | [5] 0.009 | [6] -0.01 | [7] -0.017 | [8] -0.035 | [9] -0.028 | [10] 0.04 | [11] 0.011 | [12] -0.021 | [13] -0.018 | [14] -0.063 | [15] -0.019 | [16] -0.05 | [17] -0.009 | [18] -0.031 | [19] 0.02 | [20] 0.036

(cont.)

MRPL28 (UniProt Q13084)
inactive: [1] 0.005 | [2] 0.226 | [3] 0.032 | [4] -0.081 | [5] 0.165 | [6] -0.108 | [7] 0.035 | [8] -0.057 | [9] -0.012 | [10] 0.096 | [11] -0.166 | [12] -0.08 | [13] 0.064 | [14] 0.05 | [15] 0.203 | [16] 0.12 | [17] 0.198 | [18] 0.15 | [19] 0.089 | [20] -0.06

MOGS (UniProt Q13724)
inactive: [1] -0.036 | [2] -0.033 | [3] 0.102 | [4] 0.002 | [5] 0.015 | [6] 0.073 | [7] -0.04 | [8] 0.016 | [9] 0 | [10] 0.005 | [11] -0.099 | [12] 0.011 | [13] 0.058 | [14] 0.018 | [15] 0.017 | [16] 0.032 | [17] 0.069 | [18] -0.011 | [19] 0.044 | [20] -0.05
